Measured values: PubChem BioAssay AID485314 (National Center for Advancing Translational Sciences (NCATS), 2010)
Screen size: about 340,000 compounds; about 4,500 (1.3%) were called active. This list was built around the results that the source calls inconclusive (neither active nor inactive); the mix of calls is not that of the screen. Calls follow the shape of the dose curve; as a rule, active = well fitted inhibition curve with a large enough effect; inconclusive = small, poorly fitted or top-dose-only effect, or another doubt; inactive = no such curve, though single readings can be large or run the other way. Where the call is inconclusive, the potency comes from a doubtful curve fit.

Target: DNA polymerase beta (Homo sapiens) (UniProt P06746)
Test: qHTS Assay for Inhibitors of DNA Polymerase Beta
Conditions: Pol beta primer extension/strand displacement, fluorescence kinetic; activity change, negative = inhibition: at 114 µM (top of the series)
Method in brief: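 Human Pol beta at 10 nM; strand-displacement substrate 50 nM final. Compound exposure 15 min at room temperature before start, reaction 10 min at room temperature.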
% is scaled to controls: 0 for no effect and ±100 for the full control effect; potency is read from the fitted curve at half-maximal effect.

| SMILES | Potency | activity change, negative = inhibition |
| --- | --- | --- |
| O=[N+]([O-])c1cc(S(=O)(=O)N2CCCC2)ccc1OCc1ccccc1 | inconclusive: 79.4 µM [inhibitor, single point] |  |
| O=C(NN=C1CCCC1)c1cccc(O)c1 | inactive |  |
| Cc1ccccc1NC(=O)CSc1nc(-c2ccco2)nc2cc(=O)[nH]n12 | inconclusive: 25.1 µM [inhibitor, full curve, poor fit] |  |
| O=C(CSc1c2c(nc3ccccc13)CCCC2)NCc1ccco1 | inactive |  |
| COc1ccc(CCNc2ncnc3c2[nH]c2cc(OC)c(OC)cc23)cc1OC | inconclusive: 11.2 µM [inhibitor, full curve] |  |
| CCc1ccc(NC(=S)N(CCCN2CCN(C)CC2)Cc2cccs2)cc1 | inconclusive: 89.1 µM [inhibitor, single point] |  |
| Cn1c(Cn2c(=O)sc3ccccc32)nnc1SCC(=O)NCc1ccco1 | inconclusive: 50.1 µM [inhibitor, partial curve] |  |
| O=C(NCCC1=CCCCC1)C(=O)NCc1ccccc1 | inactive |  |
| CC(C)CN(C(=O)COC(=O)c1ccc(-c2ccccc2)cc1)C1CCS(=O)(=O)C1 (centres undefined) | inconclusive: 0.126 µM [inhibitor, full curve, poor fit] |  |
| C=CCNC(=O)c1ccccc1NC(=O)c1ccc(Cl)c(S(=O)(=O)Nc2cccc(C)c2C)c1 | inconclusive: 89.1 µM [inhibitor, single point] |  |
| CCOc1ccc(/C=N/NC(=O)Cn2ccnc2C)cc1 | inconclusive: 0.158 µM [inhibitor, full curve, poor fit] |  |
| Cc1ccc2c(CC(=O)OC(C)C(=O)Nc3ncc(Cl)cc3Cl)coc2c1 (centres undefined) | inconclusive: 39.8 µM [inhibitor, single point] |  |
| Cc1ccc(NC(=O)Cn2cc(C(=O)C3CCCCC3)c3ccccc32)cc1 | inactive |  |
| COc1ccc(CCNC(=O)CCCn2nc(C)c3sc4ccccc4c3c2=O)c(OC)c1 | inactive |  |
| Cc1cc(S(=O)(=O)N2CCCC2)ccc1OCC(=O)N1CCCCC1 | inactive |  |
| Cc1nn(CC(=O)N2CCc3ccccc3C2)c(C)c1[N+](=O)[O-] | inconclusive: 1.58 µM [inhibitor, full curve, poor fit] |  |
| CC(=O)n1cc(/C=N/NC(=O)c2ccccc2Cl)c2ccccc21 | inconclusive: 28.2 µM [inhibitor, full curve, poor fit] |  |
| CCn1cc(-c2cc(C(=O)O)c3ccccc3n2)cn1 | inactive |  |
| Cc1ccc(S(=O)(=O)Nc2ccc3c(c2)nc(C)n3C)cc1 |  | inconclusive: -30.2% [inhibitor] |
| O=C1NC(=Nc2ccccc2)S/C1=C\C=C\c1ccco1 | active: 2.51 µM |  |
| CCCNC(=O)CN(C)S(=O)(=O)c1c(C)cc(C)cc1C | inconclusive: 89.1 µM [inhibitor, single point] |  |
| CCN1C(=O)c2ccccc2S(=O)(=O)c2ccc(C(=O)NCc3ccc(OC)cc3)cc21 | inactive |  |
| O=C(CNC(=O)c1ccc(Oc2ccccc2)cc1)OC1CCCCC1=O (centres undefined) | inconclusive: 11.2 µM [inhibitor, full curve] |  |

| SMILES | Potency | activity change, negative = inhibition |
| --- | --- | --- |
| CCc1ccc(NC(=O)N(CCN2CCOCC2)Cc2ccc3c(c2)CCCN3CC)cc1 | inactive |  |
| COc1cc(C(=O)Nc2ccc3c(c2)N(C(=O)CCN(C)C)c2ccccc2CC3)cc(OC)c1OC | inconclusive: 28.2 µM [inhibitor, partial curve] |  |
| Cc1ccc(C)c2c1cc(C)c1nnc(SCC(=O)NCc3ccc4c(c3)OCO4)n12 | inconclusive: 89.1 µM [inhibitor, single point] |  |
| CC(=O)c1ccc(NC(=O)c2c(C)nn(-c3ccccc3)c2Cl)cc1 | inconclusive: 39.8 µM [inhibitor, partial curve, poor fit] |  |
| Cc1ccc(NC(=O)NNC(=O)Cn2nc(-c3ccccc3)c(-c3ccccc3)c(C#N)c2=O)cc1 | inconclusive: 15.8 µM [inhibitor, full curve] |  |
| C=CCc1cc(/C=C2/NC(=S)NC2=O)cc(OC)c1O | inconclusive: 70.8 µM [inhibitor, partial curve, poor fit] |  |
| O=C(c1cccc(C(F)(F)F)c1)N1CCCCCC1 | inconclusive: 100 µM [inhibitor, single point] |  |
| Nc1[nH]c(N=NC(=O)c2ccc(Cl)cc2)c2ccccc12 | active: 79.4 µM |  |
| NC(=O)[C@@H]1CC2(CC(c3cccc(NC(=O)COc4ccc(Cl)cc4)c3)=NO2)CN1C(=O)COc1ccc(Cl)cc1 (some centres undefined) | inconclusive: 1.12 µM [inhibitor, full curve] |  |
| Cc1ccc(-c2csc(NC(=O)CCNC(=O)c3ccc(Cl)cc3)n2)cc1 | inconclusive: 0.501 µM [inhibitor, full curve, poor fit] |  |
| COc1cc(OC)cc(-c2cc3nc(C)c(CCC(=O)Nc4ccccc4OC)c(C)n3n2)c1 | inconclusive: 28.2 µM [inhibitor, single point] |  |
| CSc1ncc(-c2ccc(Cl)cc2)[nH]1 | inconclusive: 5.62 µM [inhibitor, full curve, poor fit] |  |
| Cc1cc(C)c2sc(N(CCCN(C)C)C(=O)CN3C(=O)c4ccccc4C3=O)nc2c1 | inconclusive: 50.1 µM [inhibitor, partial curve] |  |
| Cc1ccc(S(=O)Cc2ccc(C(=O)NC3CCCCCC3)o2)cc1 (centres undefined) | inactive |  |
| COc1ccc(CCNC(=O)Cn2nnc(C(=O)Nc3ccc(Br)cc3)c2N)cc1OC | inconclusive: 10 µM [inhibitor, single point] |  |
| O=[N+]([O-])c1cccc2c(S(=O)(=O)N3CCCCC3)cccc12 | inactive |  |
| CC(C)C(=O)Nc1cc2c3c(c1)CCC(=O)N3CCC2 | inactive |  |
| Cc1ccc(NC(=O)CN(C)S(=O)(=O)c2ccc3[nH]c(=O)oc3c2)c(C)c1 | inconclusive: 50.1 µM [inhibitor, partial curve] |  |
| O=C(CSc1nnc2c(n1)[nH]c1ccc(S(=O)(=O)N3CCOCC3)cc12)Nc1ccc(F)c(F)c1 | inconclusive: 89.1 µM [inhibitor, single point] |  |
| O=C(NNC(=S)Nc1ccc(F)c(Cl)c1)c1ccccc1Br | inconclusive: 89.1 µM [inhibitor, single point] |  |
| O=C(COc1ccc(/C=N/NC(=O)c2ccc(O)cc2)cc1)Nc1ccc([N+](=O)[O-])cc1 | active: 2.24 µM |  |
| S=c1[nH]nc(-c2ccccc2Cl)n1Cc1ccccc1 | inconclusive: 28.2 µM [inhibitor, partial curve, poor fit] |  |
| CCOc1ccc(Nc2c3ccccc3nc3ccccc23)cc1 | active: 20 µM |  |

| SMILES | Potency | activity change, negative = inhibition |
| --- | --- | --- |
| CCCCNC(=O)COC(=O)c1ccc(Cl)c(S(=O)(=O)N2CCCC2)c1 | inconclusive: 17.8 µM [inhibitor, full curve] |  |
| COc1ccc(N2CC(O)=C(c3nc(-c4ccc(Br)cc4)cs3)C2=N)cc1 | inactive |  |
| O=C(CNC(=O)c1cccs1)OCC(=O)c1cccs1 | inconclusive: 79.4 µM [inhibitor, single point] |  |
| Cc1cccc(N2CCN(S(=O)(=O)c3ccc4c(c3)C(C)(C)C(=O)N4C)CC2)c1C | active: 12.6 µM |  |
| Cc1onc(-c2ccccc2)c1C(=O)Nc1sc2c(c1C(N)=O)CCC2 | inconclusive: 31.6 µM [inhibitor, single point] |  |
| CC(=O)C(C(C)=O)C1(O)C(=O)c2ccccc2C1=O | inconclusive: 89.1 µM [inhibitor, single point] |  |
| COCCNC(=O)c1cc(Sc2nnc(C)s2)nc2ccccc12 | inactive |  |
| O=C1OCCC1Sc1nc2ccccc2c(=O)n1Cc1ccc(F)cc1 (centres undefined) | active: 25.1 µM |  |
| COc1cc(/C=C(\C#N)c2nc3ccccc3[nH]2)ccc1O | inconclusive: 50.1 µM [inhibitor, partial curve] |  |
| O=S(=O)(c1ccccc1)N1CCN(C(=S)NCc2ccccc2)CC1 | inconclusive: 0.282 µM [inhibitor, full curve, poor fit] |  |
| CSc1nsc(SCC(=O)N2CCN(c3ccccc3)CC2)n1 | inconclusive: 25.1 µM [inhibitor, partial curve, poor fit] |  |
| CCc1ccc(NC(=O)C(C)Sc2nc(-c3ccco3)c(C#N)c(=O)[nH]2)cc1 (centres undefined) | inactive |  |
| COC(=O)COc1ccc2c(c1)O/C(=C\c1ccco1)C2=O | active: 31.6 µM |  |
| O=C(N=Nc1c(O)[nH]c2ccc([N+](=O)[O-])cc12)c1cc(-c2ccccc2Cl)nc2ccccc12 | inconclusive: 0.562 µM [inhibitor, full curve, poor fit] |  |
| COc1cccc(-n2c(C)cc(/C=C3\C(=N)N4N=C(CC(=O)N5CCOCC5)SC4=NC3=O)c2C)c1 |  | inconclusive: -34.6% [inhibitor] |
| CCS(=O)(=O)c1ccc(O)c(NC(=O)COc2ccccc2)c1 | inconclusive: 28.2 µM [inhibitor, single point] |  |
| Cc1cc(C(=O)Nc2ccccc2)c2ccccc2n1 | inactive |  |
| CNc1nc(N)c([N+](=O)[O-])c(NC2CCCCC2)n1 | inactive |  |
| Cc1cc(C(=O)COC(=O)c2n[nH]c3ccccc23)c(C)n1CC1CCCO1 (centres undefined) | inconclusive: 3.98 µM [inhibitor, full curve] |  |
| CNC(=O)C1CCC(Cn2c(=O)c3sccc3n(CC(=O)NCc3ccc(C)cc3)c2=O)CC1 (centres undefined) | inactive |  |
| O=C(NCc1ccncc1)C(=O)N/N=C/c1cccnc1 | inconclusive: 11.2 µM [inhibitor, partial curve] |  |
| Nc1c(Cl)cc(Cl)cc1C(=O)OCC(=O)NC1CC1 | inconclusive: 25.1 µM [inhibitor, single point] |  |
| COc1ccc(CCNC(=O)c2cc3c(=O)n4ccccc4nc3n(CC3CCCO3)c2=N)cc1OC (centres undefined) | inconclusive: 0.1 µM [inhibitor, full curve, poor fit] |  |

2 neighbouring records already listed:

| SMILES | Potency | activity change, negative = inhibition |
| --- | --- | --- |
| CCS(=O)(=O)c1ccc(O)c(NC(=O)COc2ccccc2)c1 | inconclusive: 28.2 µM [inhibitor, single point] |  |
| Cc1cc(C(=O)Nc2ccccc2)c2ccccc2n1 | inactive |  |
